## Screening data, single-dose tests

Amino acid sequences for entries named in this document (tags omitted). Residues count along the entry.
UniProt Q4DA54, 1-478: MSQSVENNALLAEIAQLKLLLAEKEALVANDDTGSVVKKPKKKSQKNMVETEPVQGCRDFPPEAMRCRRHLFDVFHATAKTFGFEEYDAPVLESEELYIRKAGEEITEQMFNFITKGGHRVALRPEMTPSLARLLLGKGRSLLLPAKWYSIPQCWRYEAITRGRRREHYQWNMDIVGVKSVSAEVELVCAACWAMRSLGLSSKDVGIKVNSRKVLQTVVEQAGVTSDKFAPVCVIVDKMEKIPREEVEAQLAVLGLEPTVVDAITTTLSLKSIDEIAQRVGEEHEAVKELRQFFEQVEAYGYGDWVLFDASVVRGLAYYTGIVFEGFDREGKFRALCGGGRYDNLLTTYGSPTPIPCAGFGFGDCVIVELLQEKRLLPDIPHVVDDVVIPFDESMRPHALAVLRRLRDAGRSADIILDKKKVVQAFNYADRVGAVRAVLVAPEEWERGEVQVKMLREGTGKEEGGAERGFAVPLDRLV
UniProt P9WNZ1, whole entry: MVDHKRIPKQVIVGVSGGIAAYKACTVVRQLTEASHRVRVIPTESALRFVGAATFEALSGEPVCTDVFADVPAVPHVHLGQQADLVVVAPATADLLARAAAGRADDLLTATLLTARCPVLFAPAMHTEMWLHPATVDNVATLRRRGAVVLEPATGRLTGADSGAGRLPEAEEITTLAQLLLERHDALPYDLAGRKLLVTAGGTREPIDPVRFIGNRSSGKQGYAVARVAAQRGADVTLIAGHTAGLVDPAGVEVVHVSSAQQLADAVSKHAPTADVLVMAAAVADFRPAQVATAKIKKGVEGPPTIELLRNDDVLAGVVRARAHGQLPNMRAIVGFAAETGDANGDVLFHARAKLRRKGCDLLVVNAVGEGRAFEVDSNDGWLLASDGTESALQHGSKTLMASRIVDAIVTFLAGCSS
UniProt A4I591, 1-473: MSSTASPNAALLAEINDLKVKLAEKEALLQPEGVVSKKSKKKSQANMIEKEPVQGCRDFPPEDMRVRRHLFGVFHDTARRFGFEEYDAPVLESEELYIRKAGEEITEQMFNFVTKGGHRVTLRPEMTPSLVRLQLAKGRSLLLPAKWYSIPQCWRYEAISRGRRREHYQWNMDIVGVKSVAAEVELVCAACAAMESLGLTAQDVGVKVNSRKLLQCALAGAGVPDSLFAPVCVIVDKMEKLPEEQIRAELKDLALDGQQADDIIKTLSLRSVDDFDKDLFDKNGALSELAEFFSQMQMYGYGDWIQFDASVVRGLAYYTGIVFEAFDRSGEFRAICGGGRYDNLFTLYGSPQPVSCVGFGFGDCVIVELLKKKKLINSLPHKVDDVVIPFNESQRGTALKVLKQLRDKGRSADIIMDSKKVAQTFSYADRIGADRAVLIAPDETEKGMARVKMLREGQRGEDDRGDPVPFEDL

Data taken from ChEMBL document CHEMBL3988442, “University of Dundee, Small-Polar-MMV Screening Library” (2021).

TcHisRS: 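Histidine-tRNA ligase, Trypanosoma cruzi CL Brener (UniProt Q4DA54). Enzyme assay of histidyl-tRNA synthetase; the read-out is not stated. Concentration: 30 µM. Direction is inferred from retests: higher values go with stronger inhibition. Of about 69,000 compounds tested this way, about 31 (0.045%) reached 50% or more in at least one test.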
Leishmania in macrophages: 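Cell assay of Leishmania donovani living inside macrophages; the read-out is not stated. Tested at 30 µM. Higher reads as stronger inhibition (inferred: compounds with an IC50 in retests scored well above the rest). Size under these conditions: about 69,000 compounds, about 1,000 of them at 50% or above in at least one test.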
Toxoplasma: 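Assay of Toxoplasma gondii numbers, read through their beta-galactosidase reporter with a colour substrate. Tested at 10 µM. Higher reads as fewer parasites (inferred from which compounds were picked for retests). Size under these conditions: about 67,000 compounds, about 260 of them at 50% or above in at least one test.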
CoaBC: 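Enzyme assay of CoaBC with a phosphate dye (Biomol Green) read at 650 nm. Target: Coenzyme A biosynthesis protein CoaBC, Mycobacterium tuberculosis (UniProt P9WNZ1). Compounds at 30 µM. Direction is inferred from only a few compounds that gave an IC50; most scored high, so higher reads as stronger inhibition. Most strong results did not repeat in a second test. Of about 67,000 compounds tested this way, about 40 (0.06%) reached 50% or more in at least one test.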
LiHisRS: 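Histidine-tRNA ligase, Leishmania infantum (UniProt A4I591). Enzyme assay of histidyl-tRNA synthetase; the read-out is not stated. Compounds at 30 µM. The record gives no direction; compounds that gave an IC50 in retests scored well above the rest, so higher reads as stronger inhibition. The assay is labelled LdHisRS but filed under L. infantum. About 69,000 compounds were tested under these conditions; 0.6% (about 410) showed 50% or more at least once.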

Values are the deposited “Percent Effect”, in %.
The controls that fix the scale are not given in the record; negative values are as filed.
This is an unselected part of the compounds tested.
Two or more numbers in one place are separate tests of the same structure; such repeats can differ widely.
A dash means the value is not listed here; it may have been measured.

structure,TcHisRS,Leishmania in macrophages,Toxoplasma,CoaBC,LiHisRS
Cc1nc(C(C)C)sc1C(=O)NCCNc1ncccc1C#N,2.616%,23.44%,-21.53%,5.006%,4.386%
COc1cc2c(cc1CCC(=O)O)CCC2,6.061%,-0.9294%,-7.606%,-1.577%,11.59%
CC(=O)c1cc(CN2C[C@H]3CC[C@@H]2CN(S(C)(=O)=O)C3)cs1,3.191%,-,-,9.761%,40.62%
Cc1nccc(NCc2cncc3c2CCN(CC2CCOC2)C3)n1.Cl.Cl (stereo not drawn),-,55.7%,-42.77%,-,-
Cc1cccc(N2CCC(N3CCC4(CN(C)C(=O)O4)C3)CC2)c1C (stereo not drawn),0.5291%,48.7%,7.814%,-22.81%,26.47%
CC(C)c1nccc(-c2nccn2CCS(C)(=O)=O)n1,5.155%,2.973%,-0.7588%,-1.179%,16.48%
CCCN(CCC)C(=O)CN(C)C1CCc2ccccc21 (stereo not drawn),6.509%,22.26%,13.36%,4.689%,23.21%
CCCc1noc(C(C)N2CCN(c3ccc(C#N)cn3)CC2)n1 (stereo not drawn),6%,16.68%,2.852%,-0.3953%,13.7%
COCCNC(=O)c1ccc2ccc(N(C)CC3CC3)n2c1,26.44%,5.847%,-19.84%,4.941%,28.44%
CN(Cc1ccccn1)C1CCC[C@@H]2CN(CC3CC3)C[C@H]12 (stereo partly drawn),11.34%,-,-,0.9852%,14%
CCc1nccn1CCCNC(=O)CN1CCN(c2ncccn2)CC1,-2.513%,-15.3%,-15.41%,-4.704%,15.2%
Cc1cnn(CCNCCCOc2ccccc2)c1,10.61%,13.11%,-2.448%,-6.511%,22.73%
C/N=C1/c2cc3cc(OC)ccc3n2CCN1Cc1ccccc1.Cl,-,64.09%,-,-,-
CCc1nnc2ccc(N3CCN(S(=O)(=O)c4ccc(C)s4)CC3)nn12,23.56%,7.88%,8.059%,9.288%,43.9%
CCCc1cc(=O)[nH]c(-n2nc(C3CC3)cc2N)n1,7.229%,84.37% and 93.27%,94.33%,-3.562%,38.46%
COCCN1CCC2(CCN(Cc3ccc(OC)cc3)CC2)C1=O.O=C(O)C(F)(F)F,-,26.6%,-7.138%,-,-
COCCNC(=O)[C@H]1CN(Cc2nccs2)C[C@H]2OCC[C@@H]12,0.8264%,-,-,10.54%,15.24%
O=S(=O)(c1cccnc1)N1CCN(CC(O)c2cccs2)CC1 (stereo not drawn),0%,8.666% and 7.16%,24.32%,-7.822%,13.91%
COCCNC(=O)C(C)n1nc(-c2ccc(C)o2)cc(N)c1=O (stereo not drawn),-0.2857%,-58.49%,12.73%,4.338%,2.685%
Cc1noc(C)c1-c1cncc(C2CCCN2Cc2nccs2)n1 (stereo not drawn),-2.996%,-0.06817%,4.536%,4.833%,10%
CCC(CO)N(Cc1ccco1)C(=O)c1sccc1NC(C)=O (stereo not drawn),10.99%,40.05%,-0.7493%,6.79%,9.677%
CNC(=O)[C@@]12CCCN(c3ncccn3)[C@@H]1CN(c1ncc(F)cn1)C2,5.376%,-,-,-0.2105%,16.81%
CCC(c1ccncc1)N(C)S(C)(=O)=O (stereo not drawn),8.287%,-0.553%,-8.975%,23.79% and 1.058%,14.46%
CCCc1nc(N2CCCCC2)c2c(n1)c(C)nn2CC,6.186%,22.14%,30.53%,4.474%,17.24%
Nc1ccc(C(=O)N2C[C@@H]3CC[C@H](C2)N(Cc2ccccc2)C3)cn1,5.025%,-,-,6.624%,9.574%
CCn1ccnc1CN(C)C1CCCN(Cc2ccccc2F)C1 (stereo not drawn),-1.508%,30.13%,-4.461%,2.292%,4%
O=C(O)C(F)(F)F.[H][C@@]12C[C@H](C(=O)NC3CCC3)[C@@]([H])(CN(CC(C)C)C1)O2,-,29.89%,6.745%,-,-
COCCNc1nnc(-c2cnc(C)cn2)s1,5.639%,-0.8194%,-7.364%,-3.73%,7.092%
Cn1cc(CN2C[C@H]3CCC[C@@]3(COc3ccccn3)C2)cn1,2.21%,-,-,2.228%,6.306%
COc1ccc(CNc2c(N3CCN(C)CC3)c(=O)c2=O)cc1,3.093%,-14.82%,-23.68%,-0.4717%,7.692%
Cc1cc(C)cc(CN2CCN(Cc3ccc4nonc4c3)CC2=O)c1,2.513%,12.66%,-16.79%,2.051%,15.2%
OC(CN(Cc1ccccc1)Cc1cccnc1)c1ccco1 (stereo not drawn),7.563%,21.17%,-0.6002%,-6.048%,15.79%
COCCN(C)CC(=O)N1C[C@H]2CC[C@@H]1CN(C(=O)c1ccncc1)C2,7.054%,-,-,-8.929%,22.33%

The first 2 entries again:

| structure | TcHisRS | Leishmania in macrophages | Toxoplasma | CoaBC | LiHisRS |
|---|---|---|---|---|---|
| `Cc1nc(C(C)C)sc1C(=O)NCCNc1ncccc1C#N` | 2.616% | 23.44% | -21.53% | 5.006% | 4.386% |
| `COc1cc2c(cc1CCC(=O)O)CCC2` | 6.061% | -0.9294% | -7.606% | -1.577% | 11.59% |